Source: the supplement of paper PMC12823440, “Inhibitors supercharge kinase turnover through native proteolytic circuits” (Nature, 2025)
Structures can show the parent of a compound that is named as a salt. Some of the results follow. The calls rarely recur for the same compound in another form.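 In K562 cells expressing nanoluciferase-fused kinases, luminescence was recorded at 4 h intervals between 2 and 18 h, normalized as percent of control with DMSO at 100% and a positive control at 0%. A significant (2 sigma) signal drop marks a time point as decreased. The authors' rule for a hit is not shown and takes in more than the number of time points.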

Amino acid sequences for entries named in this document (tags omitted). A change or cut given only in a name is not applied to a line headed by its entry.
UniProt P36888, whole entry: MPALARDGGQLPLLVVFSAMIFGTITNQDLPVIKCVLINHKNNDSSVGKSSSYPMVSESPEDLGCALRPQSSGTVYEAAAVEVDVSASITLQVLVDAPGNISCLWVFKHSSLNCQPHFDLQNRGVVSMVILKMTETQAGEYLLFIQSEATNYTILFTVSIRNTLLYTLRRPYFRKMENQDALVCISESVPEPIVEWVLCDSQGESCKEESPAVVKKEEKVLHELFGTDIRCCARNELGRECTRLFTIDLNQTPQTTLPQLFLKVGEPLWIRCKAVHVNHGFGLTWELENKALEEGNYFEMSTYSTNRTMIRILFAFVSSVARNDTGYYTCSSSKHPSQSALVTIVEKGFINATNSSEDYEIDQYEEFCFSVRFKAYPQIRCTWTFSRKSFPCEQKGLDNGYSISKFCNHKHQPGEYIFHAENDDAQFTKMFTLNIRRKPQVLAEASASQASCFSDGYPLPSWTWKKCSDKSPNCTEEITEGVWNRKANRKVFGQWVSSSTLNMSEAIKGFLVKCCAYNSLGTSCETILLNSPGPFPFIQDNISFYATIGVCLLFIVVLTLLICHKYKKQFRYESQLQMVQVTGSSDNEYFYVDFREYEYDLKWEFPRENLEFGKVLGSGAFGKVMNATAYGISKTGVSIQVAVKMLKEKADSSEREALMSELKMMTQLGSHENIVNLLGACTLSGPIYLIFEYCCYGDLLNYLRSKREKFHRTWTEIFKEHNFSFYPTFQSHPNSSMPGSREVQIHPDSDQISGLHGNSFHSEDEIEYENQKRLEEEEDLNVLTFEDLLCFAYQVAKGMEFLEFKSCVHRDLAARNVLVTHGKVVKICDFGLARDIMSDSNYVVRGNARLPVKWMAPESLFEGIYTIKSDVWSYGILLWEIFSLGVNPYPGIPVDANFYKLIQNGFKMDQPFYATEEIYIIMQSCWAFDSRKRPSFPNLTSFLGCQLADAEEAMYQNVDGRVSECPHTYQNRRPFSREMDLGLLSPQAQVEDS
UniProt P06241, whole entry, looked up: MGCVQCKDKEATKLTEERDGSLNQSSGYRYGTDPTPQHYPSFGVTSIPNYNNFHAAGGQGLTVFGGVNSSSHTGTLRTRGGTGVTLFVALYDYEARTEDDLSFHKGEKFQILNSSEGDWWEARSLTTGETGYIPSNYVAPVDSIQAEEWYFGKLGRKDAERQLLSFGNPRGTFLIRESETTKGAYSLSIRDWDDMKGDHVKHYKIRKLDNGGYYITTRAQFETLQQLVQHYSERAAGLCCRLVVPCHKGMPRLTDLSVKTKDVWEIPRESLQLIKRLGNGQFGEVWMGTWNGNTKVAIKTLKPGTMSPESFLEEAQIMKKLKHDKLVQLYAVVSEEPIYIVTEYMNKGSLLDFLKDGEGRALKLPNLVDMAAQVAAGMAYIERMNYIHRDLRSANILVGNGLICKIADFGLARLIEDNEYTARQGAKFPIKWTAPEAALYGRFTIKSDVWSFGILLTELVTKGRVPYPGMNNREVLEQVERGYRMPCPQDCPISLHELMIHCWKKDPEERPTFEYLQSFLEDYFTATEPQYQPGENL
UniProt P49840: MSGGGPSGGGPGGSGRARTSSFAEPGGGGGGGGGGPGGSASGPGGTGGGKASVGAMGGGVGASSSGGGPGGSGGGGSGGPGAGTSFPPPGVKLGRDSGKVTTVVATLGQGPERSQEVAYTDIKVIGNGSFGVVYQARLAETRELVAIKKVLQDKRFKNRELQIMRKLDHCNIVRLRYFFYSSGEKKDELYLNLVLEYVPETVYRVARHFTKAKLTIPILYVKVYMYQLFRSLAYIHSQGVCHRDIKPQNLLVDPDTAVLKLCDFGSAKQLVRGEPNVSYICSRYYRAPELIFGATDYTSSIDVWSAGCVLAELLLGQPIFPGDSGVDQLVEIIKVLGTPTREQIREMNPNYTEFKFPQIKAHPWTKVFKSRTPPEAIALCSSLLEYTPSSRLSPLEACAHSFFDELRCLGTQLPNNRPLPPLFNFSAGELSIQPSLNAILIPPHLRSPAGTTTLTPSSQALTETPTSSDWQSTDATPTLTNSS
UniProt Q9Y616: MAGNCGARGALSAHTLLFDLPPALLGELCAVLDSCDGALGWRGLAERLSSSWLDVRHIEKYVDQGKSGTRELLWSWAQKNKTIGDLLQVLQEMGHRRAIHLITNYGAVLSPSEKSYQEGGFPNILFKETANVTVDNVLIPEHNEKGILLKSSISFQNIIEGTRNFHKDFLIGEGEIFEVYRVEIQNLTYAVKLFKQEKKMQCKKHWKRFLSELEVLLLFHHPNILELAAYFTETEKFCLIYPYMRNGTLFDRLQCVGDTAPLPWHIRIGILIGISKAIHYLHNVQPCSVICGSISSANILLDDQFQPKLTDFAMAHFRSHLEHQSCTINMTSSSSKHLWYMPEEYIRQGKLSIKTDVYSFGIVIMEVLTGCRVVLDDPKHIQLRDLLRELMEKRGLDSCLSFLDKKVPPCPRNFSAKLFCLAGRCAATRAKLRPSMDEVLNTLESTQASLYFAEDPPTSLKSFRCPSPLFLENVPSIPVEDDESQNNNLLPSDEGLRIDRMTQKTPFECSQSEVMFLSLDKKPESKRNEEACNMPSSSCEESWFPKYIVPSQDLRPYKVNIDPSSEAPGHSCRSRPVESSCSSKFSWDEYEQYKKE
UniProt P23458: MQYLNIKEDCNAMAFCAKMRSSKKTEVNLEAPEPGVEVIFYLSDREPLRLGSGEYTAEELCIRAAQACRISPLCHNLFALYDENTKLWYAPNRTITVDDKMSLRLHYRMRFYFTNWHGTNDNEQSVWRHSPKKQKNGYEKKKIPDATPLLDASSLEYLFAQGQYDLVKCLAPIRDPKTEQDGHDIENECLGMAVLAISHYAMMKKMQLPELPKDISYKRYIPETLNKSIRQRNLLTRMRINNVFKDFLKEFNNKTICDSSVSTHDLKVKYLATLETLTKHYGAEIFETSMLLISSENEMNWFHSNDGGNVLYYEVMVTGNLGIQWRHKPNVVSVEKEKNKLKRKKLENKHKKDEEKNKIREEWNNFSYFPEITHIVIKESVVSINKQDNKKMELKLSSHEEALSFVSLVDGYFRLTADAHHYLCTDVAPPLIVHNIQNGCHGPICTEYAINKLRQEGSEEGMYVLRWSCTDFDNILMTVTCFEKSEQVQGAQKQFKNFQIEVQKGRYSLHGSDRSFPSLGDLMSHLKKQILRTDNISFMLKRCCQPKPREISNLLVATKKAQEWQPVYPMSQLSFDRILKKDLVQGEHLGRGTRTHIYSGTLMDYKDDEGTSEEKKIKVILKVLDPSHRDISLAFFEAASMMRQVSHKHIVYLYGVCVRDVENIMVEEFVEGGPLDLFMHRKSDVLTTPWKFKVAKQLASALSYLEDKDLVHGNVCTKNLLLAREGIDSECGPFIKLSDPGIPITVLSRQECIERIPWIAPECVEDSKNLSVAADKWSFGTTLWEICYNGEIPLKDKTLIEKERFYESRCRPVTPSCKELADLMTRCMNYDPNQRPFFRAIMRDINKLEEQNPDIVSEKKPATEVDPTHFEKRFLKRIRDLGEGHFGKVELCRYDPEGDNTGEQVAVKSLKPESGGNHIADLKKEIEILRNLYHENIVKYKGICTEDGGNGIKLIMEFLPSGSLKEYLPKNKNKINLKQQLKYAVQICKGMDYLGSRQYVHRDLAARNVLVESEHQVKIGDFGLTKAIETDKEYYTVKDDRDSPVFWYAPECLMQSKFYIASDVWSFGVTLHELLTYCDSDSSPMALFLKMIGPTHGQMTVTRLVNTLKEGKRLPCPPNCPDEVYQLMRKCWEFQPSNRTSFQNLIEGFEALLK
UniProt P06239: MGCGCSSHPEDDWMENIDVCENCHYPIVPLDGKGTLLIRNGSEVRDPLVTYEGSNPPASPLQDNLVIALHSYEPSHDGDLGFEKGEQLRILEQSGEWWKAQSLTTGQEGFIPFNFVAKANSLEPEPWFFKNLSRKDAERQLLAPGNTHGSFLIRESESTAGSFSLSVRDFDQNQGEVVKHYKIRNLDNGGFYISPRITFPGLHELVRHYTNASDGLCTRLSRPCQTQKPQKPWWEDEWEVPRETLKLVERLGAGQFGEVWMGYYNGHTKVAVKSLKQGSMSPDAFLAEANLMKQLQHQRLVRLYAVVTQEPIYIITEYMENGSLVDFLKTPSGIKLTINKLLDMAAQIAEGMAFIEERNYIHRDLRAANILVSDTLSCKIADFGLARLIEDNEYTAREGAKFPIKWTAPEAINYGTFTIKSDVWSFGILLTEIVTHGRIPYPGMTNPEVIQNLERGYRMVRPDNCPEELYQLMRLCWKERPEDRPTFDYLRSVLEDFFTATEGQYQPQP
UniProt P53667: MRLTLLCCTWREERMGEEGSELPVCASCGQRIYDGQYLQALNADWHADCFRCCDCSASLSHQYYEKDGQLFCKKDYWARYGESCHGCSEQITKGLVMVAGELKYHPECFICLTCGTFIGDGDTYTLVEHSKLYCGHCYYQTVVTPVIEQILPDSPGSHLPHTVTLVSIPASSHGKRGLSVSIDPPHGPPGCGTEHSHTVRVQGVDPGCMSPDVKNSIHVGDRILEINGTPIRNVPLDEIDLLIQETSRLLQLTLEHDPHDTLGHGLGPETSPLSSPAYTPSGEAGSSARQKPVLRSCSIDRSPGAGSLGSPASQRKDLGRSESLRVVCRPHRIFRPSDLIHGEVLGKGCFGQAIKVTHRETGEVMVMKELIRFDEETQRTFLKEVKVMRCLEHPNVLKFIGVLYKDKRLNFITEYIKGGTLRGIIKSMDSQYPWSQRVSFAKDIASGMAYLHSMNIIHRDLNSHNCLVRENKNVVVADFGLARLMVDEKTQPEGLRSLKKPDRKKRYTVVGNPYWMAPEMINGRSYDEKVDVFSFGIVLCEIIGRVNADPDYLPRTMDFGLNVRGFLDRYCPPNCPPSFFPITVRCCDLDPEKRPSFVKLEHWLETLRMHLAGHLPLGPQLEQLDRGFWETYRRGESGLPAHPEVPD
UniProt P53671: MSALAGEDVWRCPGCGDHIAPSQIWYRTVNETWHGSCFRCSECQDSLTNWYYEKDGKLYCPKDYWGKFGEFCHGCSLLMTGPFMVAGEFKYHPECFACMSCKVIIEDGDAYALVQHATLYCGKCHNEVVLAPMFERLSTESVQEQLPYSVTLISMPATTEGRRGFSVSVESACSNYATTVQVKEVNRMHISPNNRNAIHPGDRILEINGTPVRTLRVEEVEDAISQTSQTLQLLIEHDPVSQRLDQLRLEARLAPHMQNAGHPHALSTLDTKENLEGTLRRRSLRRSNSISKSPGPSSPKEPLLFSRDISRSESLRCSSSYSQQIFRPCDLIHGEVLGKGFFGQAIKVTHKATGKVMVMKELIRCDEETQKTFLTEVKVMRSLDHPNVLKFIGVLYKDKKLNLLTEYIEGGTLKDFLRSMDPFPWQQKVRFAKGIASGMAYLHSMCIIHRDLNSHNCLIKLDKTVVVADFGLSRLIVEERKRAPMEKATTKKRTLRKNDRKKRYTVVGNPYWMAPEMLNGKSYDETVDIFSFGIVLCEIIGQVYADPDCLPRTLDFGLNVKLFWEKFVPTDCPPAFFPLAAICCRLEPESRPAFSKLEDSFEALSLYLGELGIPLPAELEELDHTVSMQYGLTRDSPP

Tests used:
Assay in all cases: number of time points (of 5) at which kinase-Nluc abundance scored as decreased, DMSO-normalised (count); higher = more persistent destabilization
Conditions in all cases: K562; 2-18 h
FLT3 = FLT3 (UniProt P36888)
FYN = FYN (UniProt P06241)
GSK3A = GSK3A (UniProt P49840)
HER2 = HER2 (UniProt P04626)
INSRR = INSRR (UniProt P14616)
IRAK3 = IRAK3 (UniProt Q9Y616)
JAK1 = JAK1 (UniProt P23458)
LCK = LCK (UniProt P06239)
LIMK1 = LIMK1 (UniProt P53667)
LIMK2 = LIMK2 (UniProt P53671)

Measured: number of time points

O=Nc1c(-c2c(O)[nH]c3ccc(I)cc23)[nH]c2ccccc12 [5-Iodo-indirubin-3'-monoxime] (10 µM)
2: GSK3A
0: all other assays above

CCOC(=O)N1CCN(C(=O)[C@H](Cc2cccc(C(=N)N)c2)NS(=O)(=O)c2c(C(C)C)cc(C(C)C)cc2C(C)C)CC1 (10 µM)
0: all assays above

O=C1NC(=O)/C(=C\c2cccc(C(F)(F)F)c2)S1 (2.5 µM)
0: all assays above

Cc1[nH]c(/C=C2\C(=O)Nc3ccccc32)c(C)c1CCC(=O)O [Orantinib] (10 µM)
0: all assays above

C[C@H](c1ccnc(Nc2nc3ccc(-c4cc(N(C)C)ncn4)cc3[nH]2)c1)N1CCN(C(=O)CC(F)(F)F)CC1 (2.5 µM)
0: all assays above

CC#CC(=O)N1CC[C@@H](n2c(=O)n(-c3ccc(Oc4ccccc4)cc3)c3c(N)ncnc32)C1 [Tirabrutinib (hydrochloride)] (10 µM)
0: all assays above

Cc1cc(CN2CCN(c3c(Br)cnc4nc(-c5ccc(N6CCN(C)CC6)cc5)[nH]c34)CC2)no1 (2.5 µM)
0: all assays above

CN1CCN(c2cnc3c(C4CCN(C(=O)c5ccc(OC(F)(F)F)cc5N)CC4)ncnc3c2)CC1 (10 µM)
0: all assays above

CC1(C)C(O[C@@H]2OC[C@@H](O)[C@H](O)[C@H]2O)CC[C@]23CC24CC[C@]2(C)[C@@H]([C@@]5(C)CC[C@@H](C(C)(C)O)O5)[C@H](O)C[C@@]2(C)C4C[C@@H](O[C@@H]2O[C@H](CO)[C@@H](O)[C@H](O)[C@H]2O)C13 (stereo not given in full) [Astragaloside IV] (10 µM)
0: all assays above

CNC(=O)c1cc(COc2nnc(Nc3ccc(Cl)cc3)c3ccoc23)ccn1 [Telatinib] (10 µM)
0: all assays above

CN1CCC(c2cc(-c3ccncc3)c(-c3ccc(F)cc3)[nH]2)CC1 (10 µM)
0: all assays above

Cn1cnc2c(F)c(Nc3ccc(Br)cc3Cl)c(C(=O)NOCCO)cc21 [Selumetinib] (10 µM)
0: all assays above

O=C([O-])c1cc2ccccc2c(Cc2c(O)c(C(=O)[O-])cc3ccccc23)c1O.[Na+].[Na+] [Pamoic acid (disodium)] (10 µM)
0: all assays above

FC(F)(c1ccc2ncccc2c1)c1nnc2ccc(-c3ccncc3)nn12 (10 µM)
0: all assays above

CCCCCCCCCCCCC/C=C/[C@@H](O)[C@@H](N)CO [D-erythro-Sphingosine] (2.5 µM)
0: all assays above

CCOc1ccc2cc(-c3nn(CC4CCN(C)CC4)c4ncnc(N)c34)ccc2n1 (10 µM)
0: all assays above

COc1cc(/C=C/C(=O)NCC(O)c2ccc(O)cc2)ccc1O (stereo not given) [N-Feruloyloctopamine] (2.5 µM)
0: all assays above

C=C(CC[C@@H](C(=O)O)[C@H]1[C@H](O)C[C@@]2(C)C3=C(CC[C@]12C)[C@@]1(C)CC[C@H](OC(C)=O)C(C)(C)[C@@H]1CC3)C(C)C [Pachymic acid] (10 µM)
0: all assays above

Cc1c(NC(=O)c2cccn(-c3ccc(F)cc3)c2=O)ccc(Oc2ccnc(NC(=O)C3CC3)c2)c1C (2 µM)
4: LIMK2
1: IRAK3
3: LIMK1
0: all other assays above

Looked up one by one from the entries so far (2):
CCOc1ccc2cc(-c3nn(CC4CCN(C)CC4)c4ncnc(N)c34)ccc2n1 (10 µM)
0: all assays above

CCCCCCCCCCCCC/C=C/[C@@H](O)[C@@H](N)CO [D-erythro-Sphingosine] (2.5 µM)
0: all assays above

Next records follow:

c1ccc(-c2[nH]ncc2-c2ccnc3ccccc23)nc1 (10 µM)
0: all assays above

Nc1ccc(-c2cnc(N)c(-c3ccc(Cl)cc3)c2)cn1 (10 µM)
0: all assays above

Cc1c(-c2c(F)cc(C(N)=O)c3[nH]c4c(c23)CC[C@H](C(C)(C)O)C4)cccc1-n1c(=O)c2cccc(F)c2n(C)c1=O (2.5 µM)
0: all assays above

C[C@@H]1COCCN1c1cc(C2([S@@](C)(=N)=O)CC2)nc(-c2ccnc3[nH]ccc23)n1 [(S)-Ceralasertib] (10 µM)
0: all assays above

OCCn1cc(-c2ccc3c(c2)CC/C3=N\O)c(-c2ccncc2)n1 (10 µM)
0: all assays above

CC#CC(=O)N1CC[C@@H](n2c(=O)n(-c3ccc(Oc4ccccc4)cc3)c3c(N)ncnc32)C1 [Tirabrutinib] (10 µM)
0: all assays above

CN(CC(=O)N(Cc1ccc(C2CCCCC2)cc1)c1ccc(C(=O)NO)cc1)S(=O)(=O)c1c(F)c(F)c(F)c(F)c1F (2.5 µM)
0: all assays above

CC1=C(C(=O)O)N2C(=O)[C@@H](NC(=O)[C@H](N)C3=CCC=CC3)[C@H]2SC1 [Cephradine] (10 µM)
0: all assays above

Cc1nc(-c2cn3c(n2)-c2ccc(-c4cnn(C(C)(C)C(N)=O)c4)cc2OCC3)n(C(C)C)n1 [Taselisib] (10 µM)
1: LIMK1
0: all other assays above

C[C@@H](c1ccc(-c2ccccc2)c(F)c1)c1cc(NC(=N)N2CCOCC2)on1 [Rimacalib] (10 µM)
0: all assays above

C=CC(=O)Nc1ccc(CN2C(=O)N(c3cc(OC)cc(OC)c3)Cc3cnc(Nc4ccc(N5CCN(C)CC5)cc4)nc32)cc1 (2.5 µM)
5: HER2
4: LIMK1
0: all other assays above

CCN1CCN(Cc2ccc(Nc3ncc(F)c(-c4cc(F)c5nc(C)n(C(C)C)c5c4)n3)nc2)CC1 [Abemaciclib (methanesulfonate)] (10 µM)
3: FLT3 | LIMK2
4: JAK1
0: all other assays above

COc1cccc(OC)c1C(=O)OCc1cc(O)ccc1O[C@@H]1O[C@H](CO)[C@@H](O)[C@H](O)[C@H]1O [Curculigoside] (10 µM)
0: all assays above

COc1cc2nccc(Oc3ccc(NC(=O)NC4CC4)c(Cl)c3)c2cc1C(N)=O [Lenvatinib] (10 µM)
1: HER2
0: all other assays above

Oc1cc2c(cc1O)C(Cc1cccc3ccccc13)NCC2 (stereo not given) (10 µM)
0: all assays above

CCc1cc2c(cc1N1CCC(N3CCOCC3)CC1)C(C)(C)c1[nH]c3cc(C#N)ccc3c1C2=O [Alectinib (Hydrochloride)] (2 µM)
3: FYN | LIMK1
0: all other assays above

S=C(SSC(=S)N1CCOCC1)N1CCOCC1 (10 µM)
4: LIMK2
3: FYN
2: IRAK3 | LIMK1
0: all other assays above
